Test results from PMC7399043.
These are yes or no findings as the source states them, for the method shown. Binding seen in cells or lysates may run through a third protein. Some results given as binding are weak or reduced against the parent protein; the word gives no strength. For some assays here: Where a sequence is shown, tags or fusion partners need not be part of it.

By UniProt entry, the sequences of proteins in these tests, tags left out.
UniProt Q99814: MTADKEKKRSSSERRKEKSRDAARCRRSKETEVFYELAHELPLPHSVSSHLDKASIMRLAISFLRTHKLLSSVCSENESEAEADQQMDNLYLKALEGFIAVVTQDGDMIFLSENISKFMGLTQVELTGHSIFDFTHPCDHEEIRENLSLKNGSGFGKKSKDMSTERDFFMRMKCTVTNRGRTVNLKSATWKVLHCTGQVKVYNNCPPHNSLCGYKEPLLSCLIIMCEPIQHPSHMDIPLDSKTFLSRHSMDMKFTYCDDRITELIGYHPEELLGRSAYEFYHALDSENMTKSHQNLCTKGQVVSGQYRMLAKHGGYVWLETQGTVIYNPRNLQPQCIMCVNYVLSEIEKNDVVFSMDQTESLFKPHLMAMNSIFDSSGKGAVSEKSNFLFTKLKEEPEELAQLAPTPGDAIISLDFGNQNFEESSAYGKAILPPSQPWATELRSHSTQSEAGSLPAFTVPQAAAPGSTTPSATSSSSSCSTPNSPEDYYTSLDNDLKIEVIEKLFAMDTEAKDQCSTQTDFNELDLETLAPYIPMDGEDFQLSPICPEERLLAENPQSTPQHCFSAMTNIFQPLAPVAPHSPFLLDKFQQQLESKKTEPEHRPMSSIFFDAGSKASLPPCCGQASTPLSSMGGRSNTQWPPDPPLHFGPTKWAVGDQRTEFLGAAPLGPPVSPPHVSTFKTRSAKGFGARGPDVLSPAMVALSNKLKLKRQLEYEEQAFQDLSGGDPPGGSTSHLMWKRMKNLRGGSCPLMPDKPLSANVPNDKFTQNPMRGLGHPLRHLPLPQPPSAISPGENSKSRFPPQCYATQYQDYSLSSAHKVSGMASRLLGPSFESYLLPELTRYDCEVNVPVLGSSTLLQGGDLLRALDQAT

What was measured:
[1] = molecular target: T1, FLAG-FLCN (folliculin) (UniProt Q8NFG4); assay: co-IP; FLAG-FLCN and GFP-HIF2α in ACHN cells; each precipitated in turn, Western blot
T1 sequence: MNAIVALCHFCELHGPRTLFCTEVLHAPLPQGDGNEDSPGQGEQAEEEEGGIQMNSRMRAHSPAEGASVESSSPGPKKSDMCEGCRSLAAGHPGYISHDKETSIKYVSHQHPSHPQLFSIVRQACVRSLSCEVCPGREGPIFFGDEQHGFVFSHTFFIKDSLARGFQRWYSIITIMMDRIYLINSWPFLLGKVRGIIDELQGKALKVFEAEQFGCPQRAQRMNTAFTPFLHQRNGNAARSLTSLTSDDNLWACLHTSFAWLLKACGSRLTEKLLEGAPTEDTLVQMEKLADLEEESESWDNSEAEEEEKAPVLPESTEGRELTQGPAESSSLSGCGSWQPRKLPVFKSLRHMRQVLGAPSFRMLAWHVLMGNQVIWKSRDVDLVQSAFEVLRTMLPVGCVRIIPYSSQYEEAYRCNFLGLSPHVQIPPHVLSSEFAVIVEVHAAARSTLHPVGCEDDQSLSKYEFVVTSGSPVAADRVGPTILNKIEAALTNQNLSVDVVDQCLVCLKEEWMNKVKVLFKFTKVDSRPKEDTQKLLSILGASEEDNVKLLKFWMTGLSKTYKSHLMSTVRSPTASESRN

[2] = molecular target: T2, Endogenous folliculin (FLCN) (human (endogenous in 786-O, ACHN and HK-2)) (UniProt Q8NFG4); assay: co-IP; endogenous FLCN and HIF2α immunoprecipitated with anti-FLCN or anti-HIF2α antibody from 786-O, ACHN and HK-2 lysates; IgG as control; Western blot
T2 sequence: T1 sequence

Substance	binding [1]	binding [2]
GFP-HIF2α (from UniProt Q99814 1-870)	binds	
Endogenous HIF2α (from UniProt Q99814 1-870)		binds
